{"sequences": {"note": "Amino acid sequences for entries named in this document (tags omitted). A change or cut given only in a name is not applied to a line headed by its entry.", "UniProt Q8N6K0": "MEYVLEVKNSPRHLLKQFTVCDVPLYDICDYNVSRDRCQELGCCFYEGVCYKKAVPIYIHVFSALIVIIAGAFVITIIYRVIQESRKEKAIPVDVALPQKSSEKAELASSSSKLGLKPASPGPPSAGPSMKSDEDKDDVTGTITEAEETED", "UniProt Q9NPU4": "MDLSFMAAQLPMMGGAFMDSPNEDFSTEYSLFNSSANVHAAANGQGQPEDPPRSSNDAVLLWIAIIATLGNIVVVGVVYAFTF"}, "source": "paper PMC5996148", "experiment_in_all_cases": "protein microarray (ProtoArray v5.0), streptavidin-Alexa Fluor 647", "conditions_in_all_cases": "3'-biotin; 20 mM Tris (pH 7.5), 5 mM MgCl2, 100 mM KCl, 0.1% Tween-20, A/T-rich and random oligonucleotide blockers; temperature not stated; high values mean tight binding", "key": {"C11orf70 (human)": {"system": "C11orf70 (human)"}, "C11orf71 (human)": {"system": "C11orf71 (human)"}, "C11orf74 (human)": {"system": "C11orf74 (human)"}, "C11orf79 (human)": {"system": "C11orf79 (human)"}, "C12orf10 (human)": {"system": "C12orf10 (human)"}, "C12orf39 (human)": {"system": "C12orf39 (human)"}, "C12orf41 (human)": {"system": "C12orf41 (human)"}, "C12orf48 (human)": {"system": "C12orf48 (human)"}, "C12orf5 (human)": {"system": "C12orf5 (human)"}, "C13orf16": {"biological_target": "C13orf16 (UniProt Q8N6K0)"}, "C13orf3 (human)": {"system": "C13orf3 (human)"}, "C14orf100 (human)": {"system": "C14orf100 (human)"}, "C14orf119 (human)": {"system": "C14orf119 (human)"}, "C14orf122 (human)": {"system": "C14orf122 (human)"}, "C14orf124 (human)": {"system": "C14orf124 (human)"}, "C14orf130 (human)": {"system": "C14orf130 (human)"}, "C14orf131 (human)": {"system": "C14orf131 (human)"}, "C14orf132": {"biological_target": "C14orf132 (UniProt Q9NPU4)"}, "C14orf147 (human)": {"system": "C14orf147 (human)"}, "C14orf149 (human)": {"system": "C14orf149 (human)"}}, "note": "Values joined by “and” are separate entries in the source; they are usually repeats but may differ in a detail not shown here. Equal entries are not always repeated. The list shows a part of the results. For some assays here: Construct or isoform of the protein are uncertain."}
{"sequence": "GGGAGGCTGAGGCAGG [G4-1 biotinylated (PQS2)]", "values": [{"measurement": "binding signal", "setting": "C11orf70 (human)", "value": -0.288, "unit": "z-score"}, {"measurement": "binding signal", "setting": "C11orf71 (human)", "value": -0.241, "unit": "z-score"}, {"measurement": "binding signal", "setting": "C11orf74 (human)", "value": -0.345, "unit": "z-score"}, {"measurement": "binding signal", "setting": "C11orf79 (human)", "value": -0.331, "unit": "z-score"}, {"measurement": "binding signal", "setting": "C12orf10 (human)", "value": -0.334, "unit": "z-score"}, {"measurement": "binding signal", "setting": "C12orf39 (human)", "value": -0.285, "unit": "z-score"}, {"measurement": "binding signal", "setting": "C12orf41 (human)", "value": -0.358, "unit": "z-score"}, {"measurement": "binding signal", "setting": "C12orf48 (human)", "value": -0.359, "unit": "z-score"}, {"measurement": "binding signal", "setting": "C12orf5 (human)", "value": -0.305, "unit": "z-score"}, {"measurement": "binding signal", "setting": "C13orf16", "value": -0.288, "unit": "z-score"}, {"measurement": "binding signal", "setting": "C13orf3 (human)", "value": -0.327, "unit": "z-score"}, {"measurement": "binding signal", "setting": "C14orf100 (human)", "value": -0.348, "unit": "z-score"}, {"measurement": "binding signal", "setting": "C14orf119 (human)", "value": -0.374, "unit": "z-score"}, {"measurement": "binding signal", "setting": "C14orf122 (human)", "value": -0.353, "unit": "z-score"}, {"measurement": "binding signal", "setting": "C14orf124 (human)", "value": -0.315, "unit": "z-score"}, {"measurement": "binding signal", "setting": "C14orf130 (human)", "value": -0.352, "unit": "z-score"}, {"measurement": "binding signal", "setting": "C14orf131 (human)", "value": "-0.316 z-score and -0.374 z-score"}, {"measurement": "binding signal", "setting": "C14orf132", "value": -0.305, "unit": "z-score"}, {"measurement": "binding signal", "setting": "C14orf147 (human)", "value": -0.325, "unit": "z-score"}, {"measurement": "binding signal", "setting": "C14orf149 (human)", "value": -0.319, "unit": "z-score"}]}
